Taken from: PubChem BioAssay AID720505 (Drosophila RNAi Screening Center, 2013)
The screen tested about 20,000 reagents; shown is an unselected part of those that have a named target and a result. Over the whole deposit, about 2,100 (10%) got an active call. 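Raw plate signals without normalisation; calls rest on control-based scores that were not deposited; replicate 2 separates called from uncalled poorly.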 Reagents against one gene are numbered here. Names joined by + are all predicted targets of the reagent. Not given: the amount of reagent, the time to read-out.

Purpose: 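Genes needed for store-operated calcium entry in fly cells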 (primary screen)
System: Drosophila S2R+ cells
Knock-down reagent: long dsRNA against Drosophila genes
Challenge: thapsigargin (2 µM) in calcium-free buffer to empty internal stores, then 2 mM calcium added back
Read-out: 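Fluo-4 signal in 384-well plates read on a FLIPR after thapsigargin (2 µM, calcium-free) store depletion and 2 mM calcium add-back; unnormalised mean endpoint per well; screen run twice, selected wells retested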
Scale: calcium signal and retest calcium signal: higher = more calcium entry after store depletion
Rule for the call: 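About 1500 genes called as lowering calcium entry, by varying amounts, judged against per-plate control wells with STIM1 as positive and Rho1 as negative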
Calls: active = called as lowering calcium entry; inactive = not called

| gene | reagent no. | calcium signal, replicate 1 | calcium signal, replicate 2 | retest calcium signal, replicate 1 | retest calcium signal, replicate 2 | outcome |
| --- | --- | --- | --- | --- | --- | --- |
| MsR1 | 1 | 87.3 | 43.5 | – | – | inactive |
| CG32137 | 1 | 151 | 116 | – | – | inactive |
| CG32137 | 2 | 134 | 102 | – | – | inactive |
| CG5742 | 1 | 167 | 131 | – | – | inactive |
| CG12851 | 1 | 59.8 | 119 | – | – | active |
| CG30280 | 1 | 199 | 103 | – | – | inactive |
| CG12016 + Dpm2 | 1 | 120 | 109 | – | – | inactive |
| Opbp | 1 | 116 | 137 | – | – | inactive |
| CG12995 | 1 | 106 | 136 | – | – | inactive |
| NK7.1 | 1 | 102 | 151 | – | – | inactive |
| CR12628 + Mgstl | 1 | 177 | 108 | 145 | 152 | inactive |
| CR12628 + Mgstl | 2 | 174 | 108 | – | – | inactive |
| Dysb | 1 | 110 | 126 | – | – | inactive |
| RpL17 | 1 | 121 | 88.4 | – | – | inactive |
| CG30098 | 1 | 73.4 | 84 | – | – | active |
| HBS1 | 1 | 143 | 116 | – | – | inactive |
| ninaD | 1 | 109 | 102 | – | – | inactive |
| CG10347 | 1 | 130 | 83.1 | – | – | inactive |
| Rap1 | 1 | 159 | 78.3 | – | – | inactive |
| CG5466 | 1 | 93.1 | 152 | – | – | active |
| CG5466 | 2 | 133 | 114 | – | – | inactive |
| Cfp1 | 1 | 63.3 | 78.1 | – | – | active |
| CG12107 | 1 | 113 | 74.7 | – | – | inactive |
| CG15800 | 1 | 133 | 243 | – | – | inactive |
| Vps39 | 1 | 202 | 245 | – | – | inactive |
| CG11475 | 1 | 76.4 | 89.1 | – | – | inactive |
| CG13084 | 1 | 144 | 98.5 | – | – | inactive |
| CG14937 | 1 | 204 | 169 | – | – | inactive |
| CG34462 | 1 | 95.3 | 53.8 | – | – | inactive |
| CG9095 | 1 | 99 | 144 | – | – | inactive |
| Hnf4 | 1 | 227 | 114 | – | – | inactive |
| Hnf4 | 2 | 98.5 | 132 | – | – | inactive |
| CG31087 | 1 | 218 | 131 | – | – | inactive |

Continued, starting with the last 6 of the part before.
| gene | reagent no. | calcium signal, replicate 1 | calcium signal, replicate 2 | retest calcium signal, replicate 1 | retest calcium signal, replicate 2 | outcome |
| --- | --- | --- | --- | --- | --- | --- |
| CG14937 | 1 | 204 | 169 | – | – | inactive |
| CG34462 | 1 | 95.3 | 53.8 | – | – | inactive |
| CG9095 | 1 | 99 | 144 | – | – | inactive |
| Hnf4 | 1 | 227 | 114 | – | – | inactive |
| Hnf4 | 2 | 98.5 | 132 | – | – | inactive |
| CG31087 | 1 | 218 | 131 | – | – | inactive |
| CG32201 | 1 | 86.9 | 157 | – | – | inactive |
| Lnk | 1 | 78.5 | 138 | – | – | inactive |
| SmydA-6 | 1 | 172 | 129 | – | – | inactive |
| CG32486 | 1 | 68.2 | 94.7 | – | – | active |
| CG32486 | 2 | 95.7 | 92.8 | – | – | inactive |
| phu | 1 | 107 | 102 | – | – | inactive |
| Tom40 | 1 | 48.8 | 193 | – | – | active |
| Ir20a | 1 | 102 | 99.6 | – | – | inactive |
| CG11590 | 1 | 75.1 | 127 | – | – | inactive |
| CG7252 | 1 | 119 | 71.2 | – | – | inactive |
| CG7252 | 2 | 171 | 121 | – | – | inactive |
| CG34175 | 1 | 70.7 | 91.1 | – | – | active |
| Dic4 | 1 | 72.7 | 131 | – | – | inactive |
| CG6893 | 1 | 85.5 | 161 | – | – | inactive |
| tea | 1 | 246 | 172 | – | – | inactive |
| tea | 2 | 73.3 | 99.2 | – | – | inactive |
| Hsc70-4 | 1 | 107 | 141 | – | – | inactive |
| CG4630 | 1 | 148 | 132 | – | – | inactive |
| ppk6 | 1 | 146 | 128 | – | – | inactive |
| Naxd | 1 | 153 | 93.4 | – | – | inactive |
| tnc | 1 | 179 | 98.5 | – | – | inactive |
| CG40005 (retired record) + cta | 1 | 72.2 | 9198 | – | – | inactive |
| Ptpa | 1 | 145 | 275 | – | – | inactive |
